# Data as given in the supplement of paper PMC8728848.
# The other results are listed elsewhere or left out.
# What was measured:
# Assay in all cases: glycan array binding signal (z-score within array); higher = stronger binding
# Details in all cases: glycan notation: IUPAC condensed, linker removed
# [1] = biological target: Fuc(a1-2)Gal
# How it was run: (§1)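 The binding signal is a Z-score computed within each array and averaged over linkers. Arrays of the same protein sequence at different concentrations or buffers were also averaged together. Data originate from 3228 arrays in the Consortium for Functional Glycomics database, kept only where the protein sequence was available.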
# [2] = biological target: Fuc(a1-2)Gal(b1-3)GalNAc
# How it was run: as §1
# [3] = biological target: Fuc(a1-2)Gal(b1-3)GalNAc(a1-3)[Fuc(a1-2)]Gal(b1-4)Glc
# How it was run: as §1
# [4] = biological target: Fuc(a1-2)Gal(b1-3)GalNAc(a1-3)[Fuc(a1-2)]Gal(b1-4)GlcNAc
# How it was run: as §1
# [5] = biological target: Fuc(a1-2)Gal(b1-3)GalNAc(b1-3)Gal
# How it was run: as §1
# [6] = biological target: Fuc(a1-2)Gal(b1-3)GalNAc(b1-3)Gal(a1-4)Gal(b1-4)Glc
# How it was run: as §1
# [7] = biological target: Fuc(a1-2)Gal(b1-3)GalNAc(b1-4)[Neu5Ac(a2-3)]Gal(b1-4)Glc
# How it was run: as §1
# [8] = biological target: Fuc(a1-2)Gal(b1-3)GlcNAc
# How it was run: as §1
# [9] = biological target: Fuc(a1-2)Gal(b1-3)GlcNAc(b1-2)Man(a1-3)[Fuc(a1-2)Gal(b1-3)GlcNAc(b1-2)Man(a1-6)]Man(b1-4)GlcNAc(b1-4)GlcNAc
# How it was run: as §1
# [10] = biological target: Fuc(a1-2)Gal(b1-3)GlcNAc(b1-2)Man(a1-3)[Fuc(a1-2)Gal(b1-3)GlcNAc(b1-2)Man(a1-6)]Man(b1-4)GlcNAc(b1-4)[Fuc(a1-6)]GlcNAc
# How it was run: as §1
# [11] = biological target: Fuc(a1-2)Gal(b1-3)GlcNAc(b1-3)Gal(b1-4)Glc
# How it was run: as §1
# [12] = biological target: Fuc(a1-2)Gal(b1-3)GlcNAc(b1-3)GalNAc
# How it was run: as §1
# [13] = biological target: Fuc(a1-2)Gal(b1-3)GlcNAc(b1-3)[Fuc(a1-2)Gal(b1-3)GlcNAc(b1-6)]GalNAc
# How it was run: as §1
# [14] = biological target: Fuc(a1-2)Gal(b1-3)GlcNAc(b1-3)[Gal(b1-4)GlcNAc(b1-6)]Gal(b1-4)Glc
# How it was run: as §1
# [15] = biological target: Fuc(a1-2)Gal(b1-3)GlcNAc(b1-3)[Neu5Ac(a2-6)Gal(b1-4)GlcNAc(b1-6)]Gal(b1-4)Glc
# How it was run: as §1
# [16] = biological target: Fuc(a1-2)Gal(b1-3)GlcNAc6S
# How it was run: as §1
# [17] = biological target: Fuc(a1-2)Gal(b1-3)[Fuc(a1-4)]GlcNAc
# How it was run: as §1
# [18] = biological target: Fuc(a1-2)Gal(b1-3)[Fuc(a1-4)]GlcNAc(b1-2)Man(a1-3)[Fuc(a1-2)Gal(b1-3)[Fuc(a1-4)]GlcNAc(b1-2)Man(a1-3)]Man(b1-4)GlcNAc(b1-4)GlcNAc
# How it was run: as §1
# [19] = biological target: Fuc(a1-2)Gal(b1-3)[Fuc(a1-4)]GlcNAc(b1-2)Man(a1-3)[Fuc(a1-2)Gal(b1-3)[Fuc(a1-4)]GlcNAc(b1-2)Man(a1-6)]Man(b1-4)GlcNAc(b1-4)[Fuc(a1-6)]GlcNAc(b1-4)[Fuc(a1-6)]GlcNAc
# How it was run: as §1
# [20] = biological target: Fuc(a1-2)Gal(b1-3)[Fuc(a1-4)]GlcNAc(b1-3)[Fuc(a1-3)[Gal(b1-4)]GlcNAc(b1-6)]Gal(b1-4)Glc
# How it was run: as §1
# [21] = biological target: Fuc(a1-2)Gal(b1-3)[Fuc(a1-4)]GlcNAc(b1-3)[Gal(b1-4)GlcNAc(b1-6)]Gal(b1-4)Glc
# How it was run: as §1
# [22] = biological target: Fuc(a1-2)Gal(b1-4)Glc
# How it was run: as §1
# [23] = biological target: Fuc(a1-2)Gal(b1-4)Glc6S
# How it was run: as §1
# [24] = biological target: Fuc(a1-2)Gal(b1-4)GlcNAc
# How it was run: as §1
# [25] = biological target: Fuc(a1-2)Gal(b1-4)GlcNAc(b1-2)Man
# How it was run: as §1
# [26] = biological target: Fuc(a1-2)Gal(b1-4)GlcNAc(b1-2)Man(a1-3)[Fuc(a1-2)Gal(b1-4)GlcNAc(b1-2)Man(a1-6)]Man(b1-4)GlcNAc(b1-4)GlcNAc
# How it was run: as §1
# [27] = biological target: Fuc(a1-2)Gal(b1-4)GlcNAc(b1-2)Man(a1-3)[Fuc(a1-2)Gal(b1-4)GlcNAc(b1-2)Man(a1-6)]Man(b1-4)GlcNAc(b1-4)[Fuc(a1-6)]GlcNAc
# How it was run: as §1
# [28] = biological target: Fuc(a1-2)Gal(b1-4)GlcNAc(b1-2)[Fuc(a1-2)Gal(b1-4)GlcNAc(b1-4)]Man(a1-3)[Fuc(a1-2)Gal(b1-4)GlcNAc(b1-2)Man(a1-6)]Man(b1-4)GlcNAc(b1-4)GlcNAc
# How it was run: as §1
# [29] = biological target: Fuc(a1-2)Gal(b1-4)GlcNAc(b1-3)Gal(b1-4)GlcNAc
# How it was run: as §1
# [30] = biological target: Fuc(a1-2)Gal(b1-4)GlcNAc(b1-3)Gal(b1-4)GlcNAc(b1-2)Man(a1-3)[Fuc(a1-2)Gal(b1-4)GlcNAc(b1-3)Gal(b1-4)GlcNAc(b1-2)Man(a1-6)]Man(b1-4)GlcNAc(b1-4)GlcNAc
# How it was run: as §1
binder,measurement,setting,value
OS9 (Arabidopsis thaliana) (protein) MRGSHHHHHHGMASMTGGQQMGRDLYDDDDKSRLQIFPAHLVGTFSRNNREPKYKIEFLPEDSPFHPGDNLESMVMLDKHGNRFLCYLPKEEKATSGWTSSQQNISTVMMETQQLVKLKTPDELLQPLSEKCLFRQEGWWSYEFCHQKYVRQLHVEDENKIVQEFFLGTFDPEATAAFNQTVSDASTDASQRYHSHVYTNGTTCDLTGSPREVEVRFVCAETRAMVTSITELSTCKYALTVQCPTLCKHPLFQLEKPVSHTIHCNAIPVEEDATRNKEEQAVDESPKMIADS,glycan array binding signal (z-score),[1],-0.853
same,glycan array binding signal (z-score),[2],-0.735
same,glycan array binding signal (z-score),[3],-0.33
same,glycan array binding signal (z-score),[4],0.117
same,glycan array binding signal (z-score),[5],2.39
same,glycan array binding signal (z-score),[6],0.252
same,glycan array binding signal (z-score),[7],-0.224
same,glycan array binding signal (z-score),[8],-0.466
same,glycan array binding signal (z-score),[9],0.063
same,glycan array binding signal (z-score),[10],-1.04
same,glycan array binding signal (z-score),[11],-0.833
same,glycan array binding signal (z-score),[12],-0.864
same,glycan array binding signal (z-score),[13],1.7
same,glycan array binding signal (z-score),[14],2.66
same,glycan array binding signal (z-score),[15],-0.904
same,glycan array binding signal (z-score),[16],0.061
same,glycan array binding signal (z-score),[17],1.23
same,glycan array binding signal (z-score),[18],2.42
same,glycan array binding signal (z-score),[19],0.05
same,glycan array binding signal (z-score),[20],-0.556
same,glycan array binding signal (z-score),[21],0.86
same,glycan array binding signal (z-score),[22],-0.433
same,glycan array binding signal (z-score),[23],-0.313
same,glycan array binding signal (z-score),[24],-0.861
same,glycan array binding signal (z-score),[25],0.609
same,glycan array binding signal (z-score),[26],0.098
same,glycan array binding signal (z-score),[27],0.078
same,glycan array binding signal (z-score),[28],-1.02
same,glycan array binding signal (z-score),[29],-0.44
same,glycan array binding signal (z-score),[30],1.19

# Shown with tabs: part of the list above.
binder	measurement	setting	value
OS9 (Arabidopsis thaliana) (protein) MRGSHHHHHHGMASMTGGQQMGRDLYDDDDKSRLQIFPAHLVGTFSRNNREPKYKIEFLPEDSPFHPGDNLESMVMLDKHGNRFLCYLPKEEKATSGWTSSQQNISTVMMETQQLVKLKTPDELLQPLSEKCLFRQEGWWSYEFCHQKYVRQLHVEDENKIVQEFFLGTFDPEATAAFNQTVSDASTDASQRYHSHVYTNGTTCDLTGSPREVEVRFVCAETRAMVTSITELSTCKYALTVQCPTLCKHPLFQLEKPVSHTIHCNAIPVEEDATRNKEEQAVDESPKMIADS	glycan array binding signal (z-score)	[9]	0.063
same	glycan array binding signal (z-score)	[16]	0.061
same	glycan array binding signal (z-score)	[21]	0.86
same	glycan array binding signal (z-score)	[23]	-0.313
same	glycan array binding signal (z-score)	[25]	0.609
same	glycan array binding signal (z-score)	[27]	0.078
same	glycan array binding signal (z-score)	[28]	-1.02
